Values quoted from earlier work as cited in PMC8453865 (Clinical Pharmacology in Drug Development, 2021).

Details: coadministration with gemfibrozil; cited from earlier work

CC(C)c1c(C(=O)Nc2ccccc2)c(-c2ccccc2)c(-c2ccc(F)cc2)n1CC[C@@H](O)C[C@@H](O)CC(=O)O [atorvastatin]
increase in plasma atorvastatin AUC0‐∞: 24%
